Patent publication US9521848B2, “Tetrazolinone compound and use therefor” (Sumitomo Chemical Company, Limited, priority 2013, dated 2016)
Some of these results come from one statement about several compounds together.

Experiments:
Format in all cases: in vivo
[1] = tested on: barley net blotch fungus (Pyrenophora teres); assay: Barley net blotch control test, foliar spray before inoculation (Test Examples 5, 6); settings: 500 ppm foliar spray; barley (MIKAMO GOLDEN); inoculated 2 days after spraying
[2] = tested on: wheat leaf blotch fungus (Septoria tritici); assay: Wheat leaf blotch control test, foliar spray 4 days before inoculation (Test Examples 9, 10); settings: 500 ppm foliar spray; wheat (APOGEE); inoculated 4 days after spraying
[3] = tested on: cucumber powdery mildew fungus (Sphaerotheca fuliginea); assay: Cucumber powdery mildew control test, foliar spray before inoculation (Test Examples 12, 13); settings: 500 ppm foliar spray; cucumber (SAGAMI HANJIRO); 8 days after inoculation

Measured: area of lesion spots on the treated plant relative to that on an untreated plant

Cc1nc(OCc2c(Cl)cccc2-n2nnn(C)c2=O)ccc1-c1ccccc1 [Present Compound 33, 1-[2-(5-phenyl-6-methyl-pyridin-2-yloxymethyl)-3-chlorophenyl]-4-methyl-1,4-dihydrotetrazol-5-one]
≤ 30%: all assays above

COc1ccccc1-c1cc(C)c(OCc2c(C)cccc2-n2nnn(C)c2=O)nc1C [Present Compound 39, 1-[2-{3,6-dimethyl-5-(2-methoxyphenyl)pyridin-2-yloxymethyl}-3-methylphenyl]-4-methyl-1,4-dihydrotetrazol-5-one]
≤ 30%: all assays above

Cc1cc(-c2ccccc2C#N)c(C)nc1OCc1c(C)cccc1-n1nnn(C)c1=O [Present Compound 40]
≤ 30%: all assays above

Cc1ccccc1-c1cc(C)c(OCc2c(C)cccc2-n2nnn(C)c2=O)nc1C [Present Compound 41]
≤ 30%: all assays above

Cc1cccc(-c2cc(C)c(OCc3c(C)cccc3-n3nnn(C)c3=O)nc2C)c1 [Present Compound 42]
≤ 30%: all assays above

Cc1ccc(-c2cc(C)c(OCc3c(C)cccc3-n3nnn(C)c3=O)nc2C)cc1 [Present Compound 43]
≤ 30%: all assays above

Cc1cccc(-n2nnn(C)c2=O)c1COc1ccc(-c2ccccn2)c(C)n1 [Present Compound 44, 1-[2-{6-methyl-5-(2-pyridyl)pyridin-2-yloxymethyl}-3-methylphenyl]-4-methyl-1,4-dihydrotetrazol-5-one]
≤ 30%: all assays above

Cc1cccc(-n2nnn(C)c2=O)c1COc1ccc(-c2ncccc2C#N)c(C)n1 [Present Compound 46]
≤ 30%: all assays above

Cc1cc(-c2cccc(Cl)n2)c(C)nc1OCc1c(C)cccc1-n1nnn(C)c1=O [Present Compound 48]
≤ 30%: all assays above

Cc1cc(-c2ccc(F)cn2)c(C)nc1OCc1c(C)cccc1-n1nnn(C)c1=O [Present Compound 49]
≤ 30%: all assays above

Cc1cc(-c2ccc(F)cn2)c(C)nc1OCc1c(Cl)cccc1-n1nnn(C)c1=O [Present Compound 50]
≤ 30%: all assays above

Cc1cc(-c2ccccn2)c(C)nc1OCc1c(Cl)cccc1-n1nnn(C)c1=O [Present Compound 51]
≤ 30%: all assays above
